Shown are survivors of the treated group in tumour-free mice. Counts of survivors are from the toxicity check (mostly the fifth day) where no day follows; animals may have died later. Schedules are NCI's codes, read here as Q, the interval in days (D) or hours (H), X, the number of doses.
Test system: B6D2F1 mice, nontumored toxicity test, survival
Assay: NCI In Vivo Anticancer Drug Screen. Data for tumor model Nontumored Animals (Toxicity Test) in B6D2F1 (BDF1) mice
Conditions: vehicle: saline

Measured: survivor count

Nc1ncn(C2OC(CO)C(O)C2O)c(=O)n1 (stereo unspecified)
8 of 8: dose: 1.25 mg/kg/injection, schedule: Q04DX003 (ip) | dose: 2.5 mg/kg/injection, schedule: Q04DX003 (ip) | dose: 5.0 mg/kg/injection, schedule: Q04DX003 (ip) | dose: 10.0 mg/kg/injection, schedule: Q04DX003 (ip) | dose: 20.0 mg/kg/injection, schedule: Q04DX003 (ip) | dose: 40.0 mg/kg/injection, schedule: Q04DX003 (ip)
5 of 5: dose: 0.38 mg/kg/injection, schedule: Q01DX009 (ip) | dose: 0.75 mg/kg/injection, schedule: Q01DX009 (ip) | dose: 1.5 mg/kg/injection, schedule: Q01DX009 (ip) | dose: 3.0 mg/kg/injection, schedule: Q01DX009 (ip) | dose: 6.0 mg/kg/injection, schedule: Q01DX009 (ip)
